Source: PMC3364953
These are yes or no findings as the source states them, for the method shown. In cells and extracts the contact can be indirect.

Target: H3-HA3 (A111C) (budding yeast) (UniProt P61830)
Assay: cross-linking; ex vivo cysteine cross-linking in crude yeast lysate or on isolated chromatin pellet; DTNB (also bBBr, BMOE) for 1 hour on ice in 25 mM sodium phosphate pH 7.0, 100 mM KCl, 2.5 mM MgCl2, 0.25% TritonX-100; SDS-PAGE without reducing agent, Western blot with anti-HA (H3) or anti-Myc (Cse4)

“Cse4-Myc3 (L204C) (from UniProt P36012 1-229)” was tested, and the binding was “no binding”.

For “Cse4-Myc6 (L204C) (from UniProt P36012 1-229)”, the binding was “no binding”.
